Data reported in patent publication US20040259244A1, “Methods, compositions, and growth and differentiation factors for insulin-producing cells” (priority 2002, published 2004).
At least one structure is not confirmed: it was looked up by name or label, or the drawing left a doubt.

Tested on: conversion of stem cells into insulin producing cells
Format: cell-based
Conditions: statistical analysis of insulin content of supernatants, 3 donors, combinatorial array in alginate

SMILES	effect on the conversion of stem cells into insulin producing cells
C[C@@H]1C[C@H]2[C@@H]3CCC4=CC(=O)C=C[C@]4(C)[C@@]3(F)[C@@H](O)C[C@]2(C)[C@@]1(O)C(=O)CO [Dexamethasone]	potential negative effect
CC1=C(/C=C/C(C)=C/C=C/C(C)=C/C(=O)O)C(C)(C)CCC1 [Retinoic Acid]	potential negative effect
